# Some of the results follow.
# B1: GS13971A-bth-447-22-447 (Bacteroides thetaiotaomicron) (protein)
# chain: EDVDNERSKGMFSASQSGFSTIEVYDLGPLNKIDLSIAKAGLEDTGGTVTFSVEQSLLDSLNNADGTSYQLLPPECYTIENATYSVSPGGDRRVTGGSLVYDPHKIYNLCGFDELKYVLPLRVSSTGTPMNSDRTATLYGFIVKEAIVRLASTGGDFVVEGGTTTSPMNLDTEISFENEWDLTTSFATKGADYVDNYNSANSTYYIPLPSDFYTLPDVTIAKGKTTGGSAISLLGETLPPGNYLLPVSLGGLSGQGDASINIDKETVANYFVIKQGGPINRDHWTVTANTEEKTGEVSAAYPHNGQTISLIDGEINTFWHSKWQGGEVAPPYEIILDMGKENSVSQLGLIARQNALTSMNLEIYAGDDGETWNLIGKYFFDGSIKTEQMVPVKACDARWIRIYIPTLGSGSSVGHLAEIYVYGTDK
# How the values were obtained:
# Experiment in all cases: glycan array binding signal (z-score within array); higher = stronger binding
# Conditions in all cases: glycan notation: IUPAC condensed, linker removed
# [1] = biological target: Fuc(a1-3)[Gal3S(b1-4)]GlcNAc6S
# Summary of the method: (§1)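 Glycan array data were curated from 3228 arrays in the Consortium for Functional Glycomics database and kept only where the protein sequence was available. Glycan names were converted to IUPAC-condensed notation, and columns mapping to the same glycan were averaged. The binding signal is a within-array Z-score, averaged across arrays of the same protein sequence at different concentrations or buffers and across linkers. Negative Z-scores can be read as non-binding.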
# [2] = biological target: Fuc(a1-3)[GalNAc(b1-4)]GlcNAc
# Summary of the method: as §1
# [3] = biological target: Fuc(a1-3)[GalNAc(b1-4)]GlcNAc6S
# Summary of the method: as §1
# [4] = biological target: Fuc(a1-4)GlcNAc
# Summary of the method: as §1
# [5] = biological target: Fuc(b1-3)GlcNAc
# Summary of the method: as §1
# [6] = biological target: Gal(a1-2)Gal
# Summary of the method: as §1
# [7] = biological target: Gal(a1-3)Gal
# Summary of the method: as §1
# [8] = biological target: Gal(a1-3)Gal(b1-3)GlcNAc
# Summary of the method: as §1
# [9] = biological target: Gal(a1-3)Gal(b1-3)GlcNAc(b1-2)Man
# Summary of the method: as §1
# [10] = biological target: Gal(a1-3)Gal(b1-3)GlcNAc(b1-2)Man(a1-3)[Gal(a1-3)Gal(b1-3)GlcNAc(b1-2)Man(a1-6)]Man(b1-4)GlcNAc(b1-4)GlcNAc
# Summary of the method: as §1
# [11] = biological target: Gal(a1-3)Gal(b1-3)GlcNAc(b1-3)GalNAc
# Summary of the method: as §1
# [12] = biological target: Gal(a1-3)Gal(b1-3)GlcNAc(b1-6)GalNAc
# Summary of the method: as §1
# [13] = biological target: Gal(a1-3)Gal(b1-3)[Fuc(a1-4)]GlcNAc(b1-2)Man(a1-3)[Gal(a1-3)Gal(b1-3)[Fuc(a1-4)]GlcNAc(b1-2)Man(a1-6)]Man(b1-4)GlcNAc(b1-4)GlcNAc
# Summary of the method: as §1
# [14] = biological target: Gal(a1-3)Gal(b1-4)Glc
# Summary of the method: as §1
# [15] = biological target: Gal(a1-3)Gal(b1-4)GlcNAc
# Summary of the method: as §1
# [16] = biological target: Gal(a1-3)Gal(b1-4)GlcNAc(b1-2)Man
# Summary of the method: as §1
# [17] = biological target: Gal(a1-3)Gal(b1-4)GlcNAc(b1-2)Man(a1-3)[Gal(a1-3)Gal(b1-4)GlcNAc(b1-2)Man(a1-6)]Man(b1-4)GlcNAc(b1-4)GlcNAc
# Summary of the method: as §1
# [18] = biological target: Gal(a1-3)Gal(b1-4)GlcNAc(b1-3)GalNAc
# Summary of the method: as §1
# [19] = biological target: Gal(a1-3)Gal(b1-4)GlcNAc(b1-6)GalNAc
# Summary of the method: as §1
# [20] = biological target: Gal(a1-3)Gal(b1-4)[Fuc(a1-3)]GlcNAc
# Summary of the method: as §1
# [21] = biological target: Gal(a1-3)Gal(b1-4)[Fuc(a1-3)]GlcNAc(b1-2)Man(a1-3)[Gal(a1-3)Gal(b1-4)[Fuc(a1-3)]GlcNAc(b1-2)Man(a1-6)]Man(b1-4)GlcNAc(b1-4)GlcNAc
# Summary of the method: as §1
# [22] = biological target: Gal(a1-3)GalNAc
# Summary of the method: as §1
# [23] = biological target: Gal(a1-3)[Gal(a1-4)]Gal(b1-4)GlcNAc
# Summary of the method: as §1
# [24] = biological target: Gal(a1-4)Gal(b1-3)GlcNAc(b1-2)Man(a1-3)[Gal(a1-4)Gal(b1-3)GlcNAc(b1-2)Man(a1-6)]Man(b1-4)GlcNAc(b1-4)GlcNAc
# Summary of the method: as §1
# [25] = biological target: Gal(a1-4)Gal(b1-4)Glc
# Summary of the method: as §1
# [26] = biological target: Gal(a1-4)Gal(b1-4)GlcNAc
# Summary of the method: as §1
# [27] = biological target: Gal(a1-4)Gal(b1-4)GlcNAc(b1-2)Man(a1-3)[Gal(a1-4)Gal(b1-4)GlcNAc(b1-2)Man(a1-6)]Man(b1-4)GlcNAc(b1-4)GlcNAc
# Summary of the method: as §1
# [28] = biological target: Gal(a1-4)Gal(b1-4)GlcNAc(b1-3)Gal(b1-4)Glc
# Summary of the method: as §1
# [29] = biological target: Gal(a1-4)GlcNAc
# Summary of the method: as §1
# [30] = biological target: Gal(a1-6)Glc
# Summary of the method: as §1
# [31] = biological target: Gal(b1-2)Gal
# Summary of the method: as §1
# [32] = biological target: Gal(b1-3)Gal
# Summary of the method: as §1
# [33] = biological target: Gal(b1-3)Gal(b1-4)GlcNAc
# Summary of the method: as §1
# [34] = biological target: Gal(b1-3)GalNAc
# Summary of the method: as §1
# [35] = biological target: Gal(b1-3)GalNAc(a1-3)[Fuc(a1-2)]Gal(b1-4)Glc
# Summary of the method: as §1
# [36] = biological target: Gal(b1-3)GalNAc(a1-3)[Fuc(a1-2)]Gal(b1-4)GlcNAc
# Summary of the method: as §1
# [37] = biological target: Gal(b1-3)GalNAc(b1-3)Gal
# Summary of the method: as §1
binder,measurement,setting,value
B1,glycan array binding signal (z-score),[1],-0.045
same,glycan array binding signal (z-score),[2],-0.203
same,glycan array binding signal (z-score),[3],0.133
same,glycan array binding signal (z-score),[4],12.2
same,glycan array binding signal (z-score),[5],-1.09
same,glycan array binding signal (z-score),[6],0.221
same,glycan array binding signal (z-score),[7],0.937
same,glycan array binding signal (z-score),[8],-0.382
same,glycan array binding signal (z-score),[9],0.006
same,glycan array binding signal (z-score),[10],-0.916
same,glycan array binding signal (z-score),[11],-0.436
same,glycan array binding signal (z-score),[12],-0.632
same,glycan array binding signal (z-score),[13],0.437
same,glycan array binding signal (z-score),[14],0.174
same,glycan array binding signal (z-score),[15],-1.02
same,glycan array binding signal (z-score),[16],-0.148
same,glycan array binding signal (z-score),[17],0.313
same,glycan array binding signal (z-score),[18],0.741
same,glycan array binding signal (z-score),[19],-0.373
same,glycan array binding signal (z-score),[20],0.076
same,glycan array binding signal (z-score),[21],0.646
same,glycan array binding signal (z-score),[22],-0.362
same,glycan array binding signal (z-score),[23],3.1
same,glycan array binding signal (z-score),[24],0.513
same,glycan array binding signal (z-score),[25],0.472
same,glycan array binding signal (z-score),[26],-0.575
same,glycan array binding signal (z-score),[27],0.056
same,glycan array binding signal (z-score),[28],-0.254
same,glycan array binding signal (z-score),[29],-0.681
same,glycan array binding signal (z-score),[30],0.631
same,glycan array binding signal (z-score),[31],-1.44
same,glycan array binding signal (z-score),[32],-0.681
same,glycan array binding signal (z-score),[33],-1
same,glycan array binding signal (z-score),[34],0.172
same,glycan array binding signal (z-score),[35],-0.865
same,glycan array binding signal (z-score),[36],0.222
same,glycan array binding signal (z-score),[37],0.246

# Quoted at random: two records from the list
binder,measurement,setting,value
B1,glycan array binding signal (z-score),[26],-0.575
same,glycan array binding signal (z-score),[28],-0.254

# — the supplement of paper PMC8728848
